Laboratory results reported in US20240401101A1, “A LIVE CELL ASSAY TO DETERMINE PERMEABILITY OF TEST MOLECULES TO AND/OR WITHIN THE PEPTIDOGLYCAN SCAFFOLD OF BACTERIA CELLS” (priority 2021, published 2024).
For at least one compound, name, drawing or mass did not settle the structure.

Experiments:
M. smegmatis mc^2 155 = experiment: Example IV: metabolic PG labeling of Msm with DBCO tags followed by azide fluorophore, flow cytometry; type: cell-based, Mycobacterium smegmatis; settings: metabolic label and/or fluorophore as named
Description: General method for bacterial peptidoglycan modification. M. smegmatis strains was inoculated from the glycerol stock to the according media and grown for 24 hours until 0.5-0.6 OD, tetrapeptide probes were added to the media and the cells were grown overnight to achieve stationary phase. The cells were harvested the next day and spun down for 2 min at 3000 g, washed with phosphate buffered saline with tween80 (PBST, PBS with 0.05% tween 80) two times and resuspended in PBST to yield DBCO-modified M. smegmatis cells for further labeling and other experiments.
DBCOtetra compared with stereo control and single amino acid DBCO. M. smegmatis mc^2 155 was inoculated from stationary phase in 1:100 dilution to a fresh 7H9 media with ADC. 25 μM Dap-DBCO, DBCOtetra or DBCOtera(L) were added to the culture tubes respectively, and the cells were grown for 36-40 hours until stationary phase. […] The samples were then analyzed by Attune™ NxT Acoustic Focusing Cytometer.
Confirm for click chemistry on PG. […] The samples were then analyzed by Attune™ NxT Acoustic Focusing Cytometer.
Different concentrations of DBCOtetra. […] The samples were then analyzed by Attune™ NxT Acoustic Focusing Cytometer.
Different concentration of FAM-N3 and different time. […] The samples were then analyzed by Attune™ NxT Acoustic Focusing Cytometer. […]

[1] = system: WT S. aureus (ATCC 25923); experiment: DBCO-pegn-Fl library after inhibition of D-alanylation with amsacrine; type: cell-based, Staphylococcus aureus; settings: 10 μg/mL amsacrine overnight, D-LysAz, DBCO-peg3-Fl 25 μM

Structure (SMILES): O=C1OC2(c3ccc(O)cc3Oc3cc(O)ccc32)c2ccccc21 [fluorescein, 5-carboxy fluorescein]
- fluorescence levels of Msm (M. smegmatis mc^2 155): background levels

Structure (SMILES): COc1cc(NS(C)(=O)=O)ccc1Nc1c2ccccc2nc2ccccc12 [amsacrine]
- effect of amsacrine on cellular fluorescence [1]: modest increase in cellular fluorescence
